Screen size: about 580,000 compounds; about 6,100 (1.1%) were called active. This list was built around the results that the source calls inconclusive (neither active nor inactive); the mix of calls is not that of the screen. The call rests on the fitted dose curve; in most records, active means well fitted inhibition curve with a large enough effect; inconclusive means small, poorly fitted or top-dose-only effect, or another doubt; inactive means no such curve, though single readings can be large or run the other way. Potencies beside an inconclusive call are fits to weak or partial responses and may not hold up.
Molecular target: Polyunsaturated fatty acid lipoxygenase ALOX12 (Homo sapiens) (UniProt P18054)
Experiment: Primary qHTS assay for inhibitors of human arachidonate 12S-lipoxygenase (ALOX12): Round 2
Settings: purified 12hLO, xylenol orange hydroperoxide absorbance; activity change, negative = inhibition: at 108 µM (top of the series) unless noted
Method in brief: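 Purified human 12hLO at 150 nM in 25 mM Hepes, 0.01% Triton X-100, pH 7.0, preincubated 15 min at room temperature with compound. Reaction started with 40 uM arachidonic acid, 30 min at room temperature. Hydroperoxide measured by Fe-xylenol orange, 573/405 nm absorbance ratio.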
On the % scale 0 is the no-effect control and ±100 the full control effect; potency means the concentration at half of the fitted maximal effect.

Chains of the proteins cited; added tags and fusions are not shown. Lines headed by an entry give the natural chain unless they say otherwise; changes in a name come on top.
UniProt P18054: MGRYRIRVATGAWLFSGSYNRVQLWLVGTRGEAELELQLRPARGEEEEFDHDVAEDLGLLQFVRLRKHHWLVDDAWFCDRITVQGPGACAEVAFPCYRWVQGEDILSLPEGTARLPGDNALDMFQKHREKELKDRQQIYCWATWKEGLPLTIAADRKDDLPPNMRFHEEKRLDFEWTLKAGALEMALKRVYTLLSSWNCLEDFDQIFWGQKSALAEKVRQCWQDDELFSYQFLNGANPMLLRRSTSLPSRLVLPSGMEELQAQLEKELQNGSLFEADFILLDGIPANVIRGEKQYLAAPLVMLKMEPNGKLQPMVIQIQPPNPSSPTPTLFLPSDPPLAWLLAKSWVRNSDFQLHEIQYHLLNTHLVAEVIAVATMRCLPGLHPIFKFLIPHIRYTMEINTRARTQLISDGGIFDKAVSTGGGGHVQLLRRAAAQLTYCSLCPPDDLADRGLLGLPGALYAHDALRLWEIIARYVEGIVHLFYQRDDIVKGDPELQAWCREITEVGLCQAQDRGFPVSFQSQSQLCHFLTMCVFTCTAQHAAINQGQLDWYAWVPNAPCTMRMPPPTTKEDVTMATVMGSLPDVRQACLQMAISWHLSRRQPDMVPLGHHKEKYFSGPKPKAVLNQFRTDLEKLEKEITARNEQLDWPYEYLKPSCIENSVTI

SMILES	Potency	activity change, negative = inhibition
Cc1nn(-c2nc3c(c(=O)n(Cc4cccc(Cl)c4)c(=O)n3C)n2C(C)C)c(C)c1C	inconclusive: 3.98 µM [inhibitor, full curve, poor fit]	–
CN(CCCC1CCCC1)C(=O)CC1C(=O)NCCN1Cc1ccc(F)cc1 (configuration not stated)	inconclusive: 44.7 µM [inhibitor, partial curve, poor fit]	–
COc1ccc(-c2nc3cnccc3o2)cc1NC(=O)c1cccnc1	inconclusive: 28.2 µM [inhibitor, single point]	–
CN(C)CCCNC(=O)C[C@H]1C[C@H](C(=O)N2CCCCC2)[C@@]2(CCc3ccccc3)c3[nH]c4cc(-c5ccco5)ccc4c3CCN2C1=O	inconclusive: 50.1 µM [inhibitor, partial curve, poor fit]	–
COC(=O)c1ccc(CC(=O)c2c(C)cc(O)cc2O)o1	inconclusive: 50.1 µM [inhibitor, partial curve, poor fit]	–
CC(C)c1nnc2ccc(SCC(=O)O)nn12	inconclusive: 35.5 µM [inhibitor, single point]	–
CC(=O)c1cccc(NC(=O)c2cc3c(s2)-c2c(C)cccc2OC3)c1	inconclusive: 63.1 µM [inhibitor, partial curve, poor fit]	–
O=C(NCCc1nc2ccccc2[nH]1)c1ccc(N2CCCN(Cc3cccc(F)c3)C2=O)cc1	inactive	–
COc1ccc(-c2ccc(OC)cc2)cc1	inactive	–
O=C(OCc1cccc(Cl)c1)c1ccc(N2CCOCC2)nc1	inconclusive: 44.7 µM [inhibitor, partial curve, poor fit]	–
O=C(O)COc1ccc(/C=N/O)cc1	inconclusive: 31.6 µM [inhibitor, single point]	–
CCNc1ncnc2sc3c(c12)CCN(Cc1ccco1)C3	inactive	–
COc1ccccc1NC(=O)CSc1sc2c(O)cc(=O)[nH]c2c1C#N	inactive	–
CC1=C(N2CCOCC2)CCC1=O	inconclusive: 6.31 µM [inhibitor, full curve, poor fit]	–
COc1ccc(C2CC(=O)Oc3cc4c(cc32)OCO4)cc1 (configuration not stated)	inconclusive: 39.8 µM [inhibitor, partial curve, poor fit]	–
O=C(c1cccc(F)c1)N1CCC2(CCCN(Cc3cc(C(F)(F)F)cc(C(F)(F)F)c3)C2)CC1	inactive	–
COc1cc(C(CC(=O)Nc2ccccc2)N2Cc3ccccc3C2=O)cc(OC)c1OC (configuration not stated)	inactive	–
COc1cccc(OC(=O)CSc2nnc(-c3ccc4c(c3)OCO4)o2)c1	inconclusive: 14.1 µM [inhibitor, partial curve, poor fit]	–
Cc1cccc(-c2nc3c4ccccc4nc(NCc4ccc(F)cc4)n3n2)c1	inactive	–
O=C(Nc1cccnc1)C12CC3CC(CC(C3)C1)C2	inactive	–
C=CCSc1nc2c(c(=O)[nH]c(=O)n2C)n1C/C=C(/C)Cl	inactive	–
CN(C)c1ccc(/C=C(/NC(=O)c2ccccc2)C(=O)N2CCCC2)cc1	inconclusive: 112 µM [inhibitor, partial curve, poor fit]	–
CCCCC1C(=O)N(C)CCN1c1nc2c(s1)c(C)nn2C (configuration not stated)	inconclusive: 63.1 µM [inhibitor, partial curve, poor fit]	–

SMILES	Potency	activity change, negative = inhibition
Cc1cccc(Cc2c(C)nc3nc(SCC(=O)NCc4ccco4)nn3c2C)c1	inconclusive: 28.2 µM [inhibitor, partial curve, poor fit]	–
O=C(CCCCCCCC(=O)N/N=C/c1ccc(Cl)cc1)N/N=C/c1ccc(Cl)cc1	inactive	–
CCc1ccc2c(c1)NC(c1ccc(OC)cc1)=NC(c1ccncc1)=N2	inconclusive: 15.8 µM [inhibitor, full curve, poor fit]	–
N#Cc1ccc(-c2nc(C3CC(=O)N(c4ccc(F)cc4)C3)no2)cc1 (configuration not stated)	active: 10 µM	–
O=C(O)c1ccc(NC2=C/C(=N/S(=O)(=O)c3ccccc3)c3ccccc3C2=O)cc1	inconclusive: 44.7 µM [inhibitor, partial curve]	–
CCOC(=O)c1ccc(OC(=O)c2cn(-c3cccc(OC)c3)c(=O)c3ccccc23)cc1	inconclusive: 70.8 µM [inhibitor, partial curve, poor fit]	–
CCC(CC)N1CCN(S(=O)(=O)c2ccc(OC)cc2)CC1	inconclusive: 0.562 µM [inhibitor, full curve, poor fit]	–
Cc1ccc(Cn2c(=S)[nH]c3ccc(N4CCOCC4)cc3c2=O)o1	inactive	–
COc1ccc(Br)cc1CNc1ccccc1	inconclusive: 0.355 µM [inhibitor, full curve, poor fit]	–
O=S(=O)(CCN1CCN(c2ccc(O)cc2)CC1)c1ccccc1	inactive	–
COc1cccc(Cn2c(=O)c(-c3cccc(Cl)c3)nc3cncnc32)c1	inconclusive: 100 µM [inhibitor, single point]	–
CCn1c(CNC(=O)c2ccccc2OC)nnc1SCC(=O)c1ccc(OC)cc1	inactive	–
Nc1ncccc1CN1CCc2ncc(C(=O)NCCOc3ccccc3)n2CC1	inactive	–
CN(Cc1cccc(Cl)c1Cl)S(=O)(=O)c1cn(C)c(=O)n(C)c1=O	inactive	–
C[C@@H]1CN([C@@H](C)CO)C(=O)c2cc(Br)cnc2O[C@@H]1CN(C)C(=O)CN(C)C	inactive	–
COc1ccc(-c2cc(-c3cccc(CO)c3)cn3cncc23)cc1	inconclusive: 2.82 µM [inhibitor, full curve]	–
Cc1cc(C)c2sc(N(CCCN(C)C)C(=O)COc3ccc(Cl)cc3)nc2c1	inconclusive: 44.7 µM [inhibitor, partial curve, poor fit]	–
COC(=O)c1ccccc1NC(=S)NC(=O)c1ccccc1F	inconclusive: 50.1 µM [inhibitor, partial curve, poor fit]	–
Cc1ccc(C(=O)COC(=O)c2cccc(Oc3ccc(C#N)c(C#N)c3)c2)cc1	inconclusive: 3.16 µM [inhibitor, single point]	–
CN(Cc1ccco1)c1ncncc1-c1ccc2c(c1)OCO2	inconclusive: 39.8 µM [inhibitor, partial curve, poor fit]	–
O=C(Oc1ccc(Br)cc1C(=S)N1CCCC1)c1ccccc1Cl	inactive	–
NC(=O)CN1CCC(c2nc(-c3ccc4nc[nH]c4c3)no2)CC1	inactive	–
CCOc1ccc(NS(=O)(=O)c2ccc3[nH]cc(C(=O)NCC4CCCO4)c(=O)c3c2)cc1 (configuration not stated)	inconclusive: 126 µM [inhibitor, partial curve, poor fit]	–

SMILES	Potency	activity change, negative = inhibition
FC(F)C(F)(F)C(F)(F)C(F)(F)c1cc(-c2ccccc2)n[nH]1	inconclusive: 50.1 µM [inhibitor, partial curve, poor fit]	–
CCCCC(=NCCc1c(C)[nH]c2ccccc12)C1=C(O)CC(c2ccccc2)CC1=O (configuration not stated)	inactive	–
O=C(CN1C(=O)CCC1=O)Nc1nc(-c2ccc(Cl)s2)cs1	inactive	–
C[C@H](NC(=O)c1ccco1)C(=O)Nc1cc(S(=O)(=O)N2CCCC2)ccc1OCC(F)(F)F	inconclusive: 126 µM [inhibitor, single point]	–
CCc1ccc(CC)c(S(=O)(=O)Nc2ccc(C(=O)O)c(O)c2)c1	inconclusive: 79.4 µM [inhibitor, single point]	–
COc1ccc(NCc2cc3ccc(OC)cc3n(CC(=O)Nc3cc(Cl)ccc3C)c2=O)cc1	inactive	–
COc1cccc(CNC(=S)Nc2cc(C)ccc2C)c1	inconclusive: 44.7 µM [inhibitor, partial curve, poor fit]	–
CCSc1ncc(Cl)c(C(=O)Nc2sc3c(c2C(=O)NC)CCCC3)n1	–	inconclusive: -31.4% [inhibitor]
CCN1CCN(CCC(=O)Nc2ccc(Br)c(C)c2)CC1	inconclusive: 44.7 µM [inhibitor, partial curve]	–
Cc1ccc(/C=C/c2nc3ccccc3[nH]2)o1	inconclusive: 44.7 µM [inhibitor, partial curve, poor fit]	–
CCOC(=O)c1c(C)[nH]c(C(=O)COc2ncnc3sc4c(c23)CCC4)c1C	inconclusive: 50.1 µM [inhibitor, partial curve, poor fit]	–
COCCNc1nc2c(S(=O)(=O)c3cc(C)ccc3C)nnn2c2ccccc12	inconclusive: 112 µM [inhibitor, partial curve, poor fit]	–
NS(=O)(=O)c1ccc(CCNCc2cccnc2)cc1	inconclusive: 7.94 µM [inhibitor, full curve, poor fit]	–
CC(=O)c1cc(Cl)ccc1OC(=O)c1ccc(C)cc1	inconclusive: 35.5 µM [inhibitor, partial curve, poor fit]	–
Nc1ccc(C(=O)O)c(O)c1	inconclusive: 17.8 µM [inhibitor, full curve, poor fit]	–
COc1ccc(C2(C(=O)N3CCCC(c4nc(-c5ccccc5)no4)CCNC(=O)CC3)CC2)cc1 (configuration not stated)	inconclusive: 70.8 µM [inhibitor, partial curve, poor fit]	–
CCOC(=O)c1c(NC(=O)C(=O)N/N=C/c2ccc(O)c(OC)c2)sc2c1CCCCC2	inactive	–
OCCCc1cn(-c2ccccc2)c2ccccc12	inactive	–
COc1ccc(/C=N/Nc2cc(C)nc3ccc(Br)cc23)cc1	inconclusive: 44.7 µM [inhibitor, partial curve, poor fit]	–
Cc1cc(SCC(=O)NC2CCS(=O)(=O)C2)nc2c(C)cccc12 (configuration not stated)	inconclusive: 79.4 µM [inhibitor, single point]	–
COc1ccccc1NS(=O)(=O)c1ccc(C(=O)N2CCN(c3ccccn3)CC2)cc1	inconclusive: 44.7 µM [inhibitor, partial curve, poor fit]	–

3 records drawn at random from those above, as already listed:
SMILES	Potency	activity change, negative = inhibition
Cc1ccc(C(=O)COC(=O)c2cccc(Oc3ccc(C#N)c(C#N)c3)c2)cc1	inconclusive: 3.16 µM [inhibitor, single point]	–
C=CCSc1nc2c(c(=O)[nH]c(=O)n2C)n1C/C=C(/C)Cl	inactive	–
COc1cccc(Cn2c(=O)c(-c3cccc(Cl)c3)nc3cncnc32)c1	inconclusive: 100 µM [inhibitor, single point]	–

— PubChem BioAssay AID1671190 (National Center for Advancing Translational Sciences (NCATS), 2021)
